Source: US5674840A (Gruppo Lepetit SpA, priority 1993, dated 1997)

Experiment: general procedure: solution-phase peptide synthesis; N-hydroxysuccinimide active esters; N-hydroxybenzotriazole hydrate
Conditions: coupling step, trifluoroacetate, hydrochloride, free base

**Q.** Which “crude HPLC purity” value does the source give for “(L-phenylalanyl)^3 -[N^α,N^δ -di-(t-BOC)-D-lysyl]^15 -ATDH methyl ester” here?
**A.** titre about 45%
